Results reported in patent US20090181890A1, “Amylin and Amylin Agonists for Treating Psychiatric Diseases and Disorders” (Amylin Pharmaceuticals , Inc., priority 2006, published 2009).
Part of at least one peptide drawing is inferred or uncertain, most often the ends. For some assays here: At least one compound was matched to its structure with a doubt left.

Assays:
[1] = test system: mice; format: in vivo; details: for rearing activity and PCP-induced rearing activity: open field, with and without 5 mg/kg PCP; for total distance traveled (total, central, and peripheral): rat amylin 0.1, 1.0 or 10 mg/kg, clozapine 3 mg/kg, 15-30 minutes prior to 5 mg/kg PCP, 60 minutes, FIG. 6
Description: The PCP-induced locomotion test is used with the open field activity chambers and measures locomotion, rearing, and stereotypic activity under amphetamine/PCP-induced conditions. The test has predictive validity for some antipsychotic drugs that normalize the hyperactivity and stereotypic behavior seen with amphetamine and PCP. See, for example, Williams et al. (2006) Prog. Neuropsychopharmacol. Biol. Psychiatry 30:239-243. Mice were injected with the test agent (rat amylin at 0.1, 1.0 or 10 mg/kg, 3 mg/kg clozapine (CZP), or vehicle) 15-30 minutes prior injection with 5 mg/kg PCP. The animals were then placed in the center of an open field and activity was recorded for 60 minutes. […] CZP is an atypical, second generation antipsychotic drug has a mixed receptor profile, including the dopamine receptor.

[2] = test system: Sprague-Dawley rats; assay: sugar withdrawal paradigm with restraint stress (stress-induced feeding); format: in vivo; details: rat amylin 300 μg/kg/d by osmotic pump
[3] = test system: mice; assay: stress-induced hyperthermia (SIH); format: in vivo
[4] = test system: mice; assay: marble burying; format: in vivo
Description: To confirm the interpretation of the findings outlined under Example 1, a variety of animal behavior assays were performed to test for anxiolytic, antidepressant, and antipsychotic effects of amylin administration. […] These specific behavioral tests are known to be sensitive to anxiolytic, antidepressant, or antipsychotic drugs. For these assays, rat amylin was administered to mice at doses ranging from 0.1 to 10 mg/kg, intraperitoneally or via a subcutaneously implanted osmotic pump (ALZET®) containing vehicle or rat amylin, and their performance in the assay was assessed.
Marble burying is used as a model for both anxiety and obsessive-compulsive disorder. See, for example, Chaki et al. (2003) J. Pharmacol. Exp. Ther. 304:818-826. Anxiolytics suppress marble burying activity. Mice were injected with the test agent (rat amylin at 0.1, 1.0 or 10 mg/kg, […] buspirone, or vehicle) 15-30 minutes prior to the test. Mice were then placed individually in clean cages containing 5-cm of hard wood bedding and 20 marbles spaced evenly in rows of five. The number of marbles buried in 30 minutes was recorded. […] Buspirone is a partial 5-HT1A agonist and an known anxiolytic agent.

[5] = test system: mice; assay: forced swim test (FST); format: in vivo; details: rat amylin delivered continuously for two weeks by s.c. osmotic pumps; 5 minute trial; FIG. 4
[6] = test system: mice; assay: prepulse inhibition (PPI) test; format: in vivo; details: amylin at 10 mg/kg, haloperidol at 1 mg/kg; all prepulse levels (74, 78, and 82 dB); FIG. 5
From the text: The prepulse inhibition (PPI) test measures the reflex response to externally applied auditory stimulation (acoustic startle response) and is related to the deficiency in sensory-motor gating capacity seen in schizophrenia. The acoustic startle reflex is a very basic response to strong exteroceptive stimuli and is widely used to assess sensorimotor reactivity in animals and humans. A weak auditory stimulus (prepulse, 74-82 dB) given prior to the strong acoustic stimulus (120 dB) blunts the startle response. This blunting of the startle response is referred to as prepulse inhibition. See, for example, Conti et al (2005) Behavioral Neuroscience 119: 1052-1060. Antipsychotics increase the ability of the prepulse stimulus to blunt the startle response to the strong stimulus. Some psychotomimetic agents, such as phencyclidine (PCP) and ketamine, can actually reduce the percent prepulse inhibition and stimulate a psychotic-like state in animals, which can be antagonized by antipsychotic agents.
Mice were injected with the test agent (rat amylin at 0.1, 1.0 or 10 mg/kg, or vehicle) […] prior to the test or with haloperidol at 1 mg/kg 30 minutes prior to the test. The mice were placed into an animal holder and the holder placed onto a transducer platform in an acoustic chamber. […] The amount of the animal's “reaction” to the strong stimulus was recorded. […]

[7] = weight gain induced by clozapine; format: in vivo, rats; details: clozapine 0.25 mg/kg/day with rat amylin 10 μg/kg/day, s.c. osmotic pumps, 4 weeks; FIG. 7B
[8] = test system: mice; assay: novel object recognition; format: in vivo; details: rat amylin 1.0 or 10 mg/kg IP 30 minutes prior to training; test 24 hours later; FIG. 8
Description: Since cognitive impairment is associated with psychoses, the effect of amylin administration on novel object recognition was examined. The novel object recognition task was used to measure working memory. See, for example, Miyamoto et al (2005) J. Neuroscience 25:1826-1835. Generally, animals spend less time exploring a previously presented object and more time exploring a novel object when both are presented together. Mice were injected IP with the test agent (rat amylin at 1.0 or 10 mg/kg, 0.1 mg/kg rolipram, or vehicle) 30 minutes prior to the training session. In the training, the mouse was allowed to explore two novel objects placed in the center of an open field. The time spent exploring each object was recorded. The objects differed in color, shape, and texture. Twenty-four hours after the training session, the mouse was placed back in the same open field in which one of the now familiar objects used in the training session was replaced by a novel object. The time spent exploring each object was again recorded. The memory index (or discrimination index) is the time spent exploring the novel object over the total time spent exploring both the novel and familiar objects (times 100). Results of this assay are shown in FIG. 8 where * is P<0.05 vs. vehicle.

SMILES | rearing activity and PCP-induced rearing activity [1] | total distance traveled (total, central, and peripheral) [1] | average sucrose to chow consumption ratio (as % of baseline) ([2]; 3 h restraint stress daily for 3 days, sucrose intake over following 4 days, FIG. 1A) | chow consumption (stress-induced decrease) ([2]; restraint stress, FIG. 1B) | SIH response (ΔT between two rectal temperatures) ([3]; acute, rat amylin 0.1, 1.0 or 10 mg/kg, chlordiazepoxide 10 mg/kg, 60 minutes before the assay, FIG. 2) | SIH response, chronic administration ([3]; subcutaneously implanted pumps, amylin 300 μg/kg/d, CDP 10 mg/kg/d, at both 1 week and 4 weeks) | reduction in marble burying, significance ([4]; amylin at 10 mg/kg, buspirone at 20 mg/kg, P<0.05) | number of marbles buried in 30 minutes ([4]; rat amylin 0.1, 1.0 or 10 mg/kg, buspirone 20/kg, 15-30 minutes prior, FIG. 3) | time spent in the immobile state [5] | percent of prepulse inhibition [6] | weight gain with clozapine co-administration [7] | relative time exploring the novel object (memory index) [8] [% above vehicle]
CN1CCN(C2=Nc3cc(Cl)ccc3Nc3ccccc32)CC1 [clozapine, reference compound] | reduced rearing activity and PCP-induced rearing activity | significantly reduced the total distance traveled | – | – | – | – | – | – | – | – | – | –
CC(C)C[C@H](NC(=O)[C@H](CC(N)=O)NC(=O)[C@H](CC(N)=O)NC(=O)[C@H](CO)NC(=O)[C@H](CO)NC(=O)[C@H](CCCNC(=N)N)NC(=O)[C@@H](NC(=O)[C@H](CC(C)C)NC(=O)[C@H](Cc1ccccc1)NC(=O)[C@H](CC(N)=O)NC(=O)[C@H](C)NC(=O)[C@H](CC(C)C)NC(=O)[C@H](CCCNC(=N)N)NC(=O)[C@H](CCC(N)=O)NC(=O)[C@@H](NC(=O)[C@H](C)NC(=O)[C@@H]1CSSC[C@H](NC(=O)[C@@H](N)CCCCN)C(=O)N[C@@H](CC(N)=O)C(=O)N[C@@H]([C@@H](C)O)C(=O)N[C@@H](C)C(=O)N[C@@H]([C@@H](C)O)C(=O)N1)[C@@H](C)O)C(C)C)C(=O)NCC(=O)N1CCC[C@H]1C(=O)N[C@H](C(=O)N[C@@H](CC(C)C)C(=O)N1CCC[C@H]1C(=O)N1CCC[C@H]1C(=O)N[C@H](C(=O)N[C@@H](CC(N)=O)C(=O)N[C@H](C(=O)NCC(=O)N[C@@H](CO)C(=O)N[C@@H](CC(N)=O)C(=O)N[C@H](C(=O)N[C@@H](Cc1ccc(O)cc1)C(N)=O)[C@@H](C)O)C(C)C)[C@@H](C)O)C(C)C [amylin] | reduced rearing activity and PCP-induced rearing activity | significantly reduced the total distance traveled | prevents the increase in the average sucrose to chow consumption ratio | protects against this behavioral response to stress | blunted the SIH response | significantly blunted the SIH response | statistically significant | reduced the number of marbles buried | significantly reduced the time spent in the immobile state | significantly increased the percent of prepulse inhibition | prevented the weight gain | 28
